In the assay the target is T1, GST-HMP-2 (C. elegans β-catenin homolog HMP-2 fused to GST) (C. elegans) (UniProt O44326).
T1 sequence: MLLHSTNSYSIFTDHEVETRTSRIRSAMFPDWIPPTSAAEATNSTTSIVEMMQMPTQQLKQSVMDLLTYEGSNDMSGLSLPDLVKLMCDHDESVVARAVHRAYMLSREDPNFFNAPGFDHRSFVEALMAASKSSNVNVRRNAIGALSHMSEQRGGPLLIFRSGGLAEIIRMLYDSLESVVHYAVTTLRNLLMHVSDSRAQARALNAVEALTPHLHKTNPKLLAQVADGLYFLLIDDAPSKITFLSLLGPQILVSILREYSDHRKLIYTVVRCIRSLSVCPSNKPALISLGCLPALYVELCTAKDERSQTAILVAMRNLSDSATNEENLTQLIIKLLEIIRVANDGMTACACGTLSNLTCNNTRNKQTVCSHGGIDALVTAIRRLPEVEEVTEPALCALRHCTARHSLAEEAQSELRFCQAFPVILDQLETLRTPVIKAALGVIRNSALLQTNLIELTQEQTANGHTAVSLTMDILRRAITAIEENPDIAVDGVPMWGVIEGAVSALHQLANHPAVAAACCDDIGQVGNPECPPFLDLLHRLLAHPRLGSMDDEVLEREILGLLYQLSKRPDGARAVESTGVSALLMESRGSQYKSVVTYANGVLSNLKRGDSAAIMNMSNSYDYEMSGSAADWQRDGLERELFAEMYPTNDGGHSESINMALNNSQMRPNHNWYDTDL
Nature of the assay: pull-down; GST-fusion proteins on glutathione sepharose incubated with total worm protein extracts (lysis buffer: 50 mM Tris-HCl pH 7.4, 1% Triton-X 100, 10% glycerol, 150 mM NaCl, 1 mM NaF, 1 mM Na-orthovanadate, protease inhibitors); bound MAGI-1::GFP detected on Western blots with anti-GFP; only the target purified.

Results are given in words; binding and its absence hold for the method and conditions named. In cells and extracts the contact can be indirect. Binding calls can cover weak binding; strength is not graded here. Sequences can lack the tags named with a protein.

For the substance “Full-length MAGI-1::GFP (long isoform of C. elegans MAGI-1 fused to GFP)”, the binding result is “binds”. The same measure for “MAGI-1ΔPDZ1-3::GFP (deletion mutant of MAGI-1 lacking PDZ1-3) (C. elegans)”: “binds”.

For the origin of these results see paper PMC2696103.
